The series in a line: Passive loading of radio-labeled antibody on parylene coated GR II stent. It counts as physicochemical. As to conditions: parylene coated stent immersed approx. 24 hours in 1 mg/ml antibody, pH=7.2, 37° C.

In the case of “c7E3 Fab: chimeric monoclonal antibody acting on platelet GP IIb/IIIa integrin to inhibit aggregation”, the “antibody loaded per mm^2 stent surface area” value is recorded as “approximately 0.10 μg per mm^2” and the “total antibody loaded for a 3×20 mm GR II stent” value is on record as “approximately 10 μg”.
